Source: the supplement of paper PMC7661543
± gives the standard deviation of the averaged measurements. Differences between knockout arms are mostly noise.

System: BT-20
Assay: relative cell number vs DMSO control (72 h) (% of DMSO); higher = less growth inhibition (more cells)
Experimental: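 QMAP-Seq: a pool of 5 breast cancer cell lines (ZR-75-1, SKBR3, HCC-38, MDA-MB-231, BT-20), each carrying 12 doxycycline-inducible Cas9 sgRNA perturbations (11 knockouts plus non-targeting sgNT), was treated with compounds for 72 h at four 10-fold doses (10 nM-10 uM or 1 nM-1 uM range). Barcodes were amplified and sequenced, and cell number was interpolated from 293T spike-in standard curves. The result is expressed as % of the median of DMSO wells. Two biological replicates.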

CCC[C@H](NC(=O)/C(C#N)=C/c1cccc(Br)n1)c1ccccc1 [WP1130]
Conditions	relative cell number
sgRNA knockout: sgATF3, 10 nM	92.8 ± 16
sgRNA knockout: sgATF3, 100 nM	110 ± 14
sgRNA knockout: sgATF3, 1000 nM	95.6 ± 12
sgRNA knockout: sgATF3, 10000 nM	7.59 ± 2
sgRNA knockout: sgATF4, 10 nM	103 ± 12
sgRNA knockout: sgATF4, 100 nM	92.8 ± 9.5
sgRNA knockout: sgATF4, 1000 nM	92.5 ± 9.1
sgRNA knockout: sgATF4, 10000 nM	8.71 ± 1.3
sgRNA knockout: sgATF6, 10 nM	95.4 ± 18
sgRNA knockout: sgATF6, 100 nM	81.4 ± 11
sgRNA knockout: sgATF6, 1000 nM	109 ± 9.1
sgRNA knockout: sgATF6, 10000 nM	8 ± 0.51
sgRNA knockout: sgATG7, 10 nM	101 ± 17
sgRNA knockout: sgATG7, 100 nM	95.2 ± 22
sgRNA knockout: sgATG7, 1000 nM	95.6 ± 1.3
sgRNA knockout: sgATG7, 10000 nM	8.2 ± 2
sgRNA knockout: sgERN1, 10 nM	96.2 ± 12
sgRNA knockout: sgERN1, 100 nM	114 ± 10
sgRNA knockout: sgERN1, 1000 nM	96.1 ± 11
sgRNA knockout: sgERN1, 10000 nM	8.01 ± 0.54
sgRNA knockout: sgHSF1, 10 nM	104 ± 8.6
sgRNA knockout: sgHSF1, 100 nM	89.2 ± 2.6
sgRNA knockout: sgHSF1, 1000 nM	109 ± 2.5
sgRNA knockout: sgHSF1, 10000 nM	9.11 ± 2.1
sgRNA knockout: sgHSF2, 10 nM	105 ± 20
sgRNA knockout: sgHSF2, 100 nM	95.6 ± 5.3
sgRNA knockout: sgHSF2, 1000 nM	114 ± 18
sgRNA knockout: sgHSF2, 10000 nM	10.1 ± 0.69
sgRNA knockout: sgKEAP1, 10 nM	99.1 ± 2.6
sgRNA knockout: sgKEAP1, 100 nM	94.5 ± 1.2
sgRNA knockout: sgKEAP1, 1000 nM	101 ± 1.8
sgRNA knockout: sgKEAP1, 10000 nM	8.12 ± 0.67
sgRNA knockout: sgNFE2L2, 10 nM	92.2 ± 21
sgRNA knockout: sgNFE2L2, 100 nM	98.7 ± 15
sgRNA knockout: sgNFE2L2, 1000 nM	109 ± 8.4
sgRNA knockout: sgNFE2L2, 10000 nM	12.6 ± 7.3
sgRNA knockout: sgSLC35F2, 10 nM	93.42 ± 0.55
sgRNA knockout: sgSLC35F2, 100 nM	90.1 ± 14
sgRNA knockout: sgSLC35F2, 1000 nM	93.6 ± 7.9
sgRNA knockout: sgSLC35F2, 10000 nM	9.46 ± 3.3
sgRNA knockout: sgXBP1, 10 nM	114 ± 8.2
sgRNA knockout: sgXBP1, 100 nM	110 ± 21
sgRNA knockout: sgXBP1, 1000 nM	108 ± 9.9
sgRNA knockout: sgXBP1, 10000 nM	9.3 ± 4

CN(C)/N=N/c1[nH]cnc1C(N)=O [Dacarbazine]
Conditions	relative cell number
sgRNA knockout: sgATF3, 10 nM	97.2 ± 1.6
sgRNA knockout: sgATF3, 100 nM	98 ± 0.66
sgRNA knockout: sgATF3, 1000 nM	96.7 ± 6.1
sgRNA knockout: sgATF3, 10000 nM	95.1 ± 26
sgRNA knockout: sgATF4, 10 nM	106 ± 7.7
sgRNA knockout: sgATF4, 100 nM	91.5 ± 11
sgRNA knockout: sgATF4, 1000 nM	99 ± 12
sgRNA knockout: sgATF4, 10000 nM	120 ± 42
sgRNA knockout: sgATF6, 10 nM	85.97 ± 0.35
sgRNA knockout: sgATF6, 100 nM	90 ± 12
sgRNA knockout: sgATF6, 1000 nM	97.1 ± 32
sgRNA knockout: sgATF6, 10000 nM	106 ± 36
sgRNA knockout: sgATG7, 10 nM	99.5 ± 9.5
sgRNA knockout: sgATG7, 100 nM	114 ± 0.66
sgRNA knockout: sgATG7, 1000 nM	95.957 ± 0.058
sgRNA knockout: sgATG7, 10000 nM	94.7 ± 24
sgRNA knockout: sgERN1, 10 nM	94.4 ± 3.5
sgRNA knockout: sgERN1, 100 nM	93.2 ± 9.2
sgRNA knockout: sgERN1, 1000 nM	112 ± 4
sgRNA knockout: sgERN1, 10000 nM	102 ± 32
sgRNA knockout: sgHSF1, 10 nM	93.8 ± 23
sgRNA knockout: sgHSF1, 100 nM	97.1 ± 4.4
sgRNA knockout: sgHSF1, 1000 nM	99.5 ± 13
sgRNA knockout: sgHSF1, 10000 nM	105 ± 26
sgRNA knockout: sgHSF2, 10 nM	86.3 ± 16
sgRNA knockout: sgHSF2, 100 nM	90.61 ± 0.21
sgRNA knockout: sgHSF2, 1000 nM	93.3 ± 1.5
sgRNA knockout: sgHSF2, 10000 nM	73.7 ± 3.6
sgRNA knockout: sgKEAP1, 10 nM	116 ± 6.3
sgRNA knockout: sgKEAP1, 100 nM	91.9 ± 3.1
sgRNA knockout: sgKEAP1, 1000 nM	102 ± 3.7
sgRNA knockout: sgKEAP1, 10000 nM	98.5 ± 26
sgRNA knockout: sgNFE2L2, 10 nM	98.3 ± 18
sgRNA knockout: sgNFE2L2, 100 nM	114 ± 2.8
sgRNA knockout: sgNFE2L2, 1000 nM	101 ± 31
sgRNA knockout: sgNFE2L2, 10000 nM	90.8 ± 27
sgRNA knockout: sgSLC35F2, 10 nM	76.9 ± 15
sgRNA knockout: sgSLC35F2, 100 nM	88.9 ± 13
sgRNA knockout: sgSLC35F2, 1000 nM	104 ± 11
sgRNA knockout: sgSLC35F2, 10000 nM	107 ± 17
sgRNA knockout: sgXBP1, 10 nM	104 ± 15
sgRNA knockout: sgXBP1, 100 nM	90.4 ± 3.3
sgRNA knockout: sgXBP1, 1000 nM	109 ± 16
sgRNA knockout: sgXBP1, 10000 nM	96.5 ± 43
